Reference: article PMC5474743
These are yes or no findings as the source states them, for the method shown. Binding seen in cells or lysates may run through a third protein.

Protein sequences, listed by entry. Tags and fused reporters are not part of them. Residues count along the entry.
UniProt Q07817, residues 202-233: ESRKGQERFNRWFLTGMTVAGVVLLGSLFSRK
UniProt Q92968, residues 136-233: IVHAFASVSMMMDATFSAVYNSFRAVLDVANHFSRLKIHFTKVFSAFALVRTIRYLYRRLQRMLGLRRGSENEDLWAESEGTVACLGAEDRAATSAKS
UniProt P63027, residues 84-116: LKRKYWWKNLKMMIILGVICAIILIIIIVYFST
UniProt Q7Z434: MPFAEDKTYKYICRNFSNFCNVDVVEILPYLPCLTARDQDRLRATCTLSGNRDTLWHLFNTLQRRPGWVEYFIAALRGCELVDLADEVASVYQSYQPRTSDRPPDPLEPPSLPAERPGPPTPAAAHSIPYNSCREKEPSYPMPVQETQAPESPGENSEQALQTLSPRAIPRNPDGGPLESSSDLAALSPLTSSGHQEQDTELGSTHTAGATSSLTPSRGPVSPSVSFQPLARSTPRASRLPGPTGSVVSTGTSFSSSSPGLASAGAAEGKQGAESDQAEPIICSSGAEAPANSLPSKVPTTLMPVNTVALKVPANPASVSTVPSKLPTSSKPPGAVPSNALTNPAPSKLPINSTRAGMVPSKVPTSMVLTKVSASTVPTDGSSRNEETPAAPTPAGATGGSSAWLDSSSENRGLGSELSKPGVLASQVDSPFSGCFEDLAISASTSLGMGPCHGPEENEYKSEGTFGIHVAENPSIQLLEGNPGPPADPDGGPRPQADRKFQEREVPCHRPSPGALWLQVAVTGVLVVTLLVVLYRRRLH

Tests used:
Assay in all cases: co-IP; HEK293T co-transfected with pcDNA3-HA-MAVS and Flag-tagged constructs, 36 h; lysis in HEPES 20 mM pH 7.5, NaCl 150 mM, Triton X-100 1%, DTT 1 mM; anti-flag M2 affinity gel, 4 °C, 4 h; immunoblotting (Fig. 2d, 3b)
Flag-SUMO-Bcl-xL-TM = Flag-SUMO-Bcl-xL-TM (UniProt Q07817)
Flag-SUMO-Pex13-TM = Flag-SUMO-Pex13-TM (UniProt Q92968)
Flag-SUMO-VAMP-2-TM = Flag-SUMO-VAMP-2-TM (UniProt P63027)

binding (Flag-SUMO-Bcl-xL-TM): no binding | binding (Flag-SUMO-Pex13-TM): no binding | binding (Flag-SUMO-VAMP-2-TM): no binding
Substance: HA-tagged full-length MAVS (from UniProt Q7Z434 1-540)
